# Reference: paper doi:10.1101/2021.12.14.472726
# No constants are given. Whether binding was seen depends on the method and setting. Sequences can lack the tags named with a protein.
# B1: Kluyveromyces lactis Nmd4 (protein, UniProt Q6CVZ8 1-244)
# chain: MILNFIIDSSSFEKGLGNIAIWSKLNDPKLTINAYLPLFTIQELDFQRFKRKSVVAKRALHFIDLLQDSTSFKLHLEYPELNEAISWNETVKLCQQNSHTSLSQHQISVIPIRFKKLLKSCYYKCHYKSHDLDEDIDHTNEKSDPDDKGWVLVTEDDTVRSLATQFQIPFISVVEADAIINACIKDKSYVVNEKFSKTVIKKANKVKEQEDGKKVFVTDFKNDFLAPRAKSGELWTPTSAKNKS
# Target: Kluyveromyces lactis Nmd4 (Kluyveromyces lactis) (UniProt Q6CVZ8)
# Assay: SEC-MALS
binder,measurement,value
B1,binding,no binding (tested: 1 mg/mL)
